# The list shows a part of the results.
# Target: T1, OsSMF1 (Oryza sativa, UniProt Q6ZLB0 1-436)
# T1 sequence: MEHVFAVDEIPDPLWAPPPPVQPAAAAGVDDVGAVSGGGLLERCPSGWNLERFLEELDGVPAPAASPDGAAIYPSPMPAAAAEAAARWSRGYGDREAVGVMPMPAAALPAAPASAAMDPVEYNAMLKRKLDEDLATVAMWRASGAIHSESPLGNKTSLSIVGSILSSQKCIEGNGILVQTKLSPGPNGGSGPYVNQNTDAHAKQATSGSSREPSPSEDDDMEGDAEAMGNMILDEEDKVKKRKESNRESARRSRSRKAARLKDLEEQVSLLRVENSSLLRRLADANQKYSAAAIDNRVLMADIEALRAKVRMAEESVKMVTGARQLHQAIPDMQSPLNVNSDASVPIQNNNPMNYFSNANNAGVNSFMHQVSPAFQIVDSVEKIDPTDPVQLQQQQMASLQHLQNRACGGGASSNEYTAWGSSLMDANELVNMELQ
# Test: protein-binding microarray (RPBM); PBS, 2% BSA, 51.3 ng/ul salmon testes DNA, 50 uM zinc acetate, 200 nM TF, 25 C, 1 h; high values mean tight binding
# Settings: protein: recombinant; tags: N-terminal polyhistidine and DsRed monomer fusion (pET32a); chain copies: 2; label: CyDye5-dUTP incorporated in the synthesized complementary strand; 3' TTTTT single-stranded linker to array surface; dsDNA, one strand shown
# Outline: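 Polyhistidine-tagged DsRed fusions of transcription factors, joined at the N-terminus, were expressed in E. coli BL21-CodonPlus and isolated on Ni–NTA. They were incubated at 200 nM for 1 h at 25 °C on a custom Agilent array, double-stranded and BSA-blocked, in PBS with 2% BSA, salmon testes DNA and 50 µM zinc acetate. The binding signal is per-feature fluorescence intensity (arbitrary units) read on an Axon 4000B scanner after washing.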
row,Sequence,binding signal
1,CAAGCCTGCCAGATAATCGTGCCCACGCTGCCGGCGAATGCGGAGTCACCTAGTGCAG,3370 fluorescence intensity (a.u.)
2,GTGCGCACCCGGCACCCGCGTCCAACGCTATATATTACGCCGGAGTCACCTAGTGCAG,3200 fluorescence intensity (a.u.)
3,CAAATCTGGGCATCCGCGTCAGCGCTGCGCCTGCGCCGCTCGGAGTCACCTAGTGCAG,10400 fluorescence intensity (a.u.)
4,TTTGAGATTTGTGATGGAACACGTGTCACCTGTGGTCGCGCGGAGTCACCTAGTGCAG,4790 fluorescence intensity (a.u.)
5,ATATCCTATCAGATGAACGTCAGTGACAGTGACTGTACTCCGGAGTCACCTAGTGCAG,7840 fluorescence intensity (a.u.)
6,GGAGGATAAGGTAATGACGTGGTTATCCGGTCGAGCAAACCGGAGTCACCTAGTGCAG,5280 fluorescence intensity (a.u.)
7,ATCGCCAACGTGTCGCGGCTTTCCGCCACCAAATCGATACCGGAGTCACCTAGTGCAG,33000 fluorescence intensity (a.u.)
8,AGCCCAACTCGTGATCCAGTCATCCATAGTCGACTCGACTCGGAGTCACCTAGTGCAG,4870 fluorescence intensity (a.u.)
9,GCAGCCGGATGCGAGCCGTCGTCGTCGCCCGTCGTGGCCACGGAGTCACCTAGTGCAG,3280 fluorescence intensity (a.u.)
10,TATTACCAATGAAAATTTTATCTTATAGTCAGTTTAATCTCGGAGTCACCTAGTGCAG,4970 fluorescence intensity (a.u.)
11,TTTTAAGTGTGGTTTATATCTTATATATTTGTATAAAATTCGGAGTCACCTAGTGCAG,11400 fluorescence intensity (a.u.)
12,ACCATGGTGCCCGGGCACCATGGTGCCCCATATGAGTGTCCGGAGTCACCTAGTGCAG,36800 fluorescence intensity (a.u.)
13,GGGGTGTGTGTGGGTTGGATCAACTACCCCAGCTACTGCCCGGAGTCACCTAGTGCAG,3490 fluorescence intensity (a.u.)
14,CCAAACATACCCATTATCACATATCGCAGCCGCCCATGTTCGGAGTCACCTAGTGCAG,35300 fluorescence intensity (a.u.)
15,CTGTTTCAGCACCACTGAGTTCGCAGCAAATGACACAAGGCGGAGTCACCTAGTGCAG,3340 fluorescence intensity (a.u.)
16,CTAATACTCATTTAATGAGGGGCATATATCCTTTTCTCTCCGGAGTCACCTAGTGCAG,30800 fluorescence intensity (a.u.)
17,TGTGGGGTCCACGTAATGCCACGTCAGCGCAACCTAGGAACGGAGTCACCTAGTGCAG,37100 fluorescence intensity (a.u.)
18,AAGGAGCCTCCACGTTCGCTCTCATGGCCTAGAAATTCTCCGGAGTCACCTAGTGCAG,3540 fluorescence intensity (a.u.)
19,TTCAAATGCCACCTAAGCGCCACGTCAACCCCATAGACTGCGGAGTCACCTAGTGCAG,39500 fluorescence intensity (a.u.)
20,AAGAAAATGGAATCTAGGTGTAATCATCTACCACCGGTAACGGAGTCACCTAGTGCAG,3140 fluorescence intensity (a.u.)
21,TGGAAAAGTCTGTGCTGTATTATTGAACCAGTCCTTCCAGCGGAGTCACCTAGTGCAG,8990 fluorescence intensity (a.u.)
22,ATGGGATATCCATAATCTCCACACCAGGGGACTCCCTCATCGGAGTCACCTAGTGCAG,30300 fluorescence intensity (a.u.)
23,CACTCACATGTGTGTCCAATCTCCATGATGTTCACATCACCGGAGTCACCTAGTGCAG,3540 fluorescence intensity (a.u.)
24,TCCCCTTTTCAACCCACAGTACTATCCACGTCCGTACTATCGGAGTCACCTAGTGCAG,3920 fluorescence intensity (a.u.)
25,GCGGTGTTGACTTCTTACAAGGACGTGTTCCCATGTCTCACGGAGTCACCTAGTGCAG,4460 fluorescence intensity (a.u.)
26,AGAACCACAGATGGAGCGCTAATCATTGGTGCCGATCGGCCGGAGTCACCTAGTGCAG,17900 fluorescence intensity (a.u.)
27,TCTCATTGACAAGCCAACAAACGCACAGTGTGACAAGCTCCGGAGTCACCTAGTGCAG,35300 fluorescence intensity (a.u.)

row,Sequence,binding signal
1,ATATACCGTACCCCATCGCCATCGATCGGTGTCATTCATTCGGAGTCACCTAGTGCAG,3400 fluorescence intensity (a.u.)
2,GAAATATATATTACTAATGTTACTTTTGTTACGGTTGTAGCGGAGTCACCTAGTGCAG,20100 fluorescence intensity (a.u.)
3,TACTTTTCCAACCCAACCTCAAACACAACCAATCCACCTCCGGAGTCACCTAGTGCAG,3260 fluorescence intensity (a.u.)
4,TCCATGGAAATGGTTCTCGATTGATCGGTAGTTTTCGTATCGGAGTCACCTAGTGCAG,3200 fluorescence intensity (a.u.)
5,GCCGCCGCACGGCTTGTCGTTGTCATCGTCGTCACCTTGTCGGAGTCACCTAGTGCAG,3920 fluorescence intensity (a.u.)
6,GGTGCAGTTCATCATATGTGTTAGACTAATTGAGTAATTGCGGAGTCACCTAGTGCAG,36500 fluorescence intensity (a.u.)
7,CCCGCATACATGTCGTCCGCGGCCGTGGCGTCTCCGAGGGCGGAGTCACCTAGTGCAG,3180 fluorescence intensity (a.u.)
8,CCTCTGCGCAACCGAAGCAAGGTGACGCATCCGATCTCCGCGGAGTCACCTAGTGCAG,4150 fluorescence intensity (a.u.)
9,CCTTTAACTAATGTTCACTTTGGACCGGATAATCTTACCTCGGAGTCACCTAGTGCAG,3810 fluorescence intensity (a.u.)
10,AAAATTGGTGGTTGCTGCGCCTGCTGGTGCCAGATGTTATCGGAGTCACCTAGTGCAG,3190 fluorescence intensity (a.u.)
11,AAGGGAGAGGAGCTTACGTGGCATCCTGACATGTGGGCACCGGAGTCACCTAGTGCAG,23400 fluorescence intensity (a.u.)
12,TGTTCTTCAGGAAGGCGTCCTCGACGACGTGTCGGCGATGCGGAGTCACCTAGTGCAG,5300 fluorescence intensity (a.u.)
13,GAAGGGAGCAGTACGGCCAGAGAGCTAGGGTTTGGGTAATCGGAGTCACCTAGTGCAG,3550 fluorescence intensity (a.u.)
14,AGCCGCGGTCACGCACGCCACGCGTTCGATCGATCGATCACGGAGTCACCTAGTGCAG,4120 fluorescence intensity (a.u.)
15,TCCACGGAGATCCAGATCTATCCAACGCTCCACGCACCCACGGAGTCACCTAGTGCAG,3610 fluorescence intensity (a.u.)
16,GGAGGCTGACGTGGATTACGCTGACATGTGGGGCCTATGTCGGAGTCACCTAGTGCAG,21200 fluorescence intensity (a.u.)
17,TCCAGACGCGGCCTCGTCGTCACCACTGCAGCCTCCTCCTCGGAGTCACCTAGTGCAG,3710 fluorescence intensity (a.u.)
18,GGGAAAGTTTTGAAAAGAACTCAGCCAGTGAAAATGCATGCGGAGTCACCTAGTGCAG,5910 fluorescence intensity (a.u.)
19,AAAGATGGCATGCCAACAGAGATAGATCAGGGCTCAGGGGCGGAGTCACCTAGTGCAG,3150 fluorescence intensity (a.u.)
20,TAACTCGTGGCATATAGCTGCATCAACCCGTAATGACTTACGGAGTCACCTAGTGCAG,7040 fluorescence intensity (a.u.)
21,TGGGAGTTTTATTTATATACAACGTGTAGCACTAGCCATTCGGAGTCACCTAGTGCAG,3210 fluorescence intensity (a.u.)
22,TCTTATACTAAGATAATAAGATTATATCCTTGTCATCCAACGGAGTCACCTAGTGCAG,4430 fluorescence intensity (a.u.)
23,TAGTTAAAGCCACGTTCTTAATTTCTCCTTTTGCTTTTGGCGGAGTCACCTAGTGCAG,4020 fluorescence intensity (a.u.)
24,ACGACCGTCCACGCCTCGCGCCACCTCTCGTCCGCCAAACCGGAGTCACCTAGTGCAG,4800 fluorescence intensity (a.u.)
25,CGGTTTTGACCCCGATTTATCTGACGTGGCGGCTGAGTCGCGGAGTCACCTAGTGCAG,10900 fluorescence intensity (a.u.)
26,TGATTGGTAGTACGATTTTACGACACGTTGATCAGCCAGCCGGAGTCACCTAGTGCAG,3470 fluorescence intensity (a.u.)
27,CCATCGAACTAATGCTTGCCGTCATCTACCAGCATACAGTCGGAGTCACCTAGTGCAG,3310 fluorescence intensity (a.u.)

# Part of the list above in a different format.
row	Sequence	binding signal
1	ATATACCGTACCCCATCGCCATCGATCGGTGTCATTCATTCGGAGTCACCTAGTGCAG	3400 fluorescence intensity (a.u.)
2	GAAATATATATTACTAATGTTACTTTTGTTACGGTTGTAGCGGAGTCACCTAGTGCAG	20100 fluorescence intensity (a.u.)
5	GCCGCCGCACGGCTTGTCGTTGTCATCGTCGTCACCTTGTCGGAGTCACCTAGTGCAG	3920 fluorescence intensity (a.u.)
7	CCCGCATACATGTCGTCCGCGGCCGTGGCGTCTCCGAGGGCGGAGTCACCTAGTGCAG	3180 fluorescence intensity (a.u.)
9	CCTTTAACTAATGTTCACTTTGGACCGGATAATCTTACCTCGGAGTCACCTAGTGCAG	3810 fluorescence intensity (a.u.)
10	AAAATTGGTGGTTGCTGCGCCTGCTGGTGCCAGATGTTATCGGAGTCACCTAGTGCAG	3190 fluorescence intensity (a.u.)
11	AAGGGAGAGGAGCTTACGTGGCATCCTGACATGTGGGCACCGGAGTCACCTAGTGCAG	23400 fluorescence intensity (a.u.)
13	GAAGGGAGCAGTACGGCCAGAGAGCTAGGGTTTGGGTAATCGGAGTCACCTAGTGCAG	3550 fluorescence intensity (a.u.)
14	AGCCGCGGTCACGCACGCCACGCGTTCGATCGATCGATCACGGAGTCACCTAGTGCAG	4120 fluorescence intensity (a.u.)
15	TCCACGGAGATCCAGATCTATCCAACGCTCCACGCACCCACGGAGTCACCTAGTGCAG	3610 fluorescence intensity (a.u.)
19	AAAGATGGCATGCCAACAGAGATAGATCAGGGCTCAGGGGCGGAGTCACCTAGTGCAG	3150 fluorescence intensity (a.u.)
20	TAACTCGTGGCATATAGCTGCATCAACCCGTAATGACTTACGGAGTCACCTAGTGCAG	7040 fluorescence intensity (a.u.)
23	TAGTTAAAGCCACGTTCTTAATTTCTCCTTTTGCTTTTGGCGGAGTCACCTAGTGCAG	4020 fluorescence intensity (a.u.)
24	ACGACCGTCCACGCCTCGCGCCACCTCTCGTCCGCCAAACCGGAGTCACCTAGTGCAG	4800 fluorescence intensity (a.u.)
25	CGGTTTTGACCCCGATTTATCTGACGTGGCGGCTGAGTCGCGGAGTCACCTAGTGCAG	10900 fluorescence intensity (a.u.)
26	TGATTGGTAGTACGATTTTACGACACGTTGATCAGCCAGCCGGAGTCACCTAGTGCAG	3470 fluorescence intensity (a.u.)

# — article PMC7819943, “Rice protein-binding microarrays: a tool to detect cis-acting elements near promoter regions in rice”
